These results are taken from publication PMC5996148.

Among the test systems are SF3B3 (human); SFT2D1 (human); SFXN1 (human); SFXN3 (human); SGK2 (human); SGTA (human); SH2B1 (human); SIRPG (human); SIVA1 (human); SKIL (human); SKP1A (human); SLC26A2 (human); SLC2A5 (human); SLC39A1 (human); SLC40A1 (human); SLC7A1 (human); SMAD1 (human); SMCP (human); SMPD3 (human).
Common to all, as to assay: protein microarray (ProtoArray v5.0), streptavidin-Alexa Fluor 647
Holding throughout (settings): 3'-biotin; 20 mM Tris (pH 7.5), 5 mM MgCl2, 100 mM KCl, 0.1% Tween-20, A/T-rich and random oligonucleotide blockers; temperature not stated; high values mean tight binding

The target of a further assay is T1, SLC1A6 (UniProt P48664).
T1 sequence: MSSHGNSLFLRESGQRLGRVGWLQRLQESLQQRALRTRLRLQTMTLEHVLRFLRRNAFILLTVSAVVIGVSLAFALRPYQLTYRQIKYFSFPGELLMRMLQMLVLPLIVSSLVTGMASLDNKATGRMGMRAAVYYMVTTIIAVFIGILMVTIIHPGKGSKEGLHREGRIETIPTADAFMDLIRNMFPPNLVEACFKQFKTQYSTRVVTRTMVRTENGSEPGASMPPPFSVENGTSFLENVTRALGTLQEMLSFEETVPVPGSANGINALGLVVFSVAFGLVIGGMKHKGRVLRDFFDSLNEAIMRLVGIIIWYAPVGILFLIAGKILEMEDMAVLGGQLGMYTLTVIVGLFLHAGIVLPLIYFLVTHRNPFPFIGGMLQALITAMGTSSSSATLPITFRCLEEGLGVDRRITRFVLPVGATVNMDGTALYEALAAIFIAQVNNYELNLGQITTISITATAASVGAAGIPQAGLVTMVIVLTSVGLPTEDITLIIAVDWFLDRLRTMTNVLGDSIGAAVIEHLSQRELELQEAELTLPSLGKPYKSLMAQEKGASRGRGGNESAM

Values joined by “and” are separate entries in the source; they are usually repeats but may differ in a detail not shown here. Equal entries are not always repeated. The list shows a part of the results. For some assays here: The exact form of the protein is not confirmed.

Take “GGTGACAGGGGTATGGGGAGGGG [G4-2 biotinylated (Ct1)]”: the binding signal is -0.357 z-score with SF3B3 (human); -0.373 z-score with SFT2D1 (human); -0.373 z-score in the assay on SFXN1 (human); -0.395 z-score with SFXN3 (human); -0.37 z-score with SGK2 (human); -0.389 z-score in the assay with SGTA (human). Also, the binding signal in the assay with SH2B1 (human) was -0.384 z-score; in the assay with SIRPG (human) it was -0.359 z-score; with SIVA1 (human) it was -0.372 z-score; in the assay with SKIL (human), -0.357 z-score; in the assay on SKP1A (human), -0.4 z-score; with SLC1A6, -0.368 z-score. The binding signal is -0.383 z-score in the assay on SLC26A2 (human); -0.375 z-score and -0.385 z-score in the assay with SLC2A5 (human); -0.382 z-score in the assay with SLC39A1 (human); -0.375 z-score with SLC40A1 (human); -0.393 z-score with SLC7A1 (human); -0.386 z-score with SMAD1 (human). The binding signal is -0.393 z-score in the assay with SMCP (human) and -0.383 z-score with SMPD3 (human).
